# According to ChEMBL document CHEMBL5131436, “Dual Sigma-1 receptor antagonists and hydrogen sulfide-releasing compounds for pain treatment: Design, synthesis, and pharmacological evaluation” (Eur J Med Chem, 2022):
# Target: T1, Sigma intracellular receptor 2 (Rattus norvegicus, UniProt Q5U3Y7)
# T1 sequence (Q5U3Y7 whole entry): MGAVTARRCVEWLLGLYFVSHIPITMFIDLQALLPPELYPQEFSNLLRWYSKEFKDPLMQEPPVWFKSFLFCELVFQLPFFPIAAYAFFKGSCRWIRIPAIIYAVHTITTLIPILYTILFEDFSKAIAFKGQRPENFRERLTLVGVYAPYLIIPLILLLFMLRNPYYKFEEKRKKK
# Experiment: biochemical
smiles,measurement,value
OC(CCCN1CCC(O)(c2ccc(Cl)cc2)CC1)c1ccc(F)cc1 (racemic) [HYDROXYHALOPERIDOL],Ki,2.4 nM
